PubChem BioAssay AID1224828 | NIAID | 2016
The whole screen tested about 17,000 reagents; shown is a part drawn at random. Over the whole deposit, 762 (4.5%) were called active. 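Active calls include both raised and lowered p65 entry, mostly lowered; wells with fewer than 50 cells lack a z-score.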 Raw values vary from plate to plate and are shown uncorrected. Unmarked entries are inactive. Reagent sequences are not shown.

- Screen: 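Find genes required for NF-kappaB p65 moving into the nucleus after LPS in mouse macrophages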 (primary screen)
- Cell system: mouse RAW264.7 G9 macrophage reporter cells (GFP-p65, Tnf promoter-mCherry)
- Knock-down reagent: siRNA pool against mouse genes, 100 nM
- Duration: 2 days siRNA transfection, then 40 min LPS before fixation
- Treatment: LPS (Salmonella minnesota R595) at 10 ng/ml
- Measured: 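Imaged p65 nuclear translocation ratio, normalised to the plate median, converted to robust z-scores and averaged across two replicates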
- Scale: p65 translocation robust z-score: higher = more nuclear NF-kappaB p65 after LPS than the plate median; nuclear/cytoplasmic p65 ratio: higher = more nuclear NF-kappaB p65
- Active means: 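Called active when z exceeds 3.3 or falls under -1.56 (median of Tlr4 controls), giving activity score of at least 50; no calls for control wells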
- Calls: active = hit (p65 shift raised or lowered); inactive = no clear change

gene symbol,p65 translocation robust z-score,"nuclear/cytoplasmic p65 ratio, rep 1","nuclear/cytoplasmic p65 ratio, rep 2",low cell count flag
Irf7 (interferon regulatory factor 7),0.44,1.55,1.42,enough cells to score
"Acad8 (acyl-Coenzyme A dehydrogenase family, member 8)",0.65,1.72,1.77,enough cells to score
Atg7 (autophagy related 7),-0.11,1.65,1.56,enough cells to score
Med1 (mediator complex subunit 1),0.19,1.48,1.47,enough cells to score
Mtpap (mitochondrial poly(A) polymerase),0.24,1.49,1.26,enough cells to score
"Scarb2 (scavenger receptor class B, member 2)",-1.34,1.34,1.31,enough cells to score
Dnm3 (dynamin 3),-1,1.27,1.4,enough cells to score
"Atp6v0c (ATPase, H+ transporting, lysosomal V0 subunit C)",-0.44,1.54,1.45,enough cells to score
"Itih4 (inter alpha-trypsin inhibitor, heavy chain 4)",-0.04,1.51,1.46,enough cells to score
Zfp770 (zinc finger protein 770),1.73,1.71,1.74,enough cells to score
Pcsk9 (proprotein convertase subtilisin/kexin type 9),,1.37,1.23,fewer than 50 cells per well; well left out of scoring
Cdk2ap2 (cyclin dependent kinase 2 associated protein 2),-0.39,1.64,1.31,enough cells to score
Thbd (thrombomodulin),0.03,1.53,1.52,enough cells to score
Rbfa (ribosome binding factor A),1.18,1.6,1.71,enough cells to score
Sfpq,-1.08,1.38,1.42,enough cells to score
Gp2 (glycoprotein 2 zymogen granule membrane),0.57,1.72,1.57,enough cells to score
Ccnl2 (cyclin L2),-0.43,1.59,1.65,enough cells to score
Or10d5j (olfactory receptor family 10 subfamily D member 5J),1.15,1.6,1.25,enough cells to score
Cd300c (CD300C molecule),-1.75 (active),1.19,1.19,enough cells to score
Siglecl2 (Siglec family like 2),,1.28,0,fewer than 50 cells per well; well left out of scoring
Chd1l (chromodomain helicase DNA binding protein 1-like),-0.97,1.36,1.71,enough cells to score
"Me1 (malic enzyme 1, NADP(+)-dependent, cytosolic)",1.31,1.64,1.49,enough cells to score
Ufm1 (ubiquitin-fold modifier 1),,1.24,1.28,fewer than 50 cells per well; well left out of scoring
Phtf1 (putative homeodomain transcription factor 1),-0.99,1.37,1.27,enough cells to score
Tex101 (testis expressed gene 101),,1.06,1.14,fewer than 50 cells per well; well left out of scoring
Snap91 (synaptosomal-associated protein 91),,1.55,1.22,fewer than 50 cells per well; well left out of scoring
"Nt5c3 (5'-nucleotidase, cytosolic III)",0.35,1.45,1.5,enough cells to score
Or7g25 (olfactory receptor family 7 subfamily G member 25),,1.35,1.16,fewer than 50 cells per well; well left out of scoring
Nucleolin (nucleolin multifunctional protein),1.84,2.1,1.85,enough cells to score
Or6z3 (olfactory receptor family 6 subfamily Z member 3),0.25,1.64,1.54,enough cells to score
Tmem50b (transmembrane protein 50B),-1.62 (active),1.36,1.28,enough cells to score
Sez6l2 (seizure related 6 homolog like 2),1.05,1.66,1.53,enough cells to score
Os9 (amplified in osteosarcoma),,1.16,1.31,fewer than 50 cells per well; well left out of scoring
Spc24,,0.812,1.85,fewer than 50 cells per well; well left out of scoring
Notch3 (notch 3),-0.53,1.42,1.3,enough cells to score
Ccl22 (C-C motif chemokine ligand 22),0.41,1.74,1.43,enough cells to score
Ivd (isovaleryl coenzyme A dehydrogenase),-0.25,1.45,1.34,enough cells to score
Lias (lipoic acid synthetase),0.03,1.73,1.44,enough cells to score
Esd (esterase D/formylglutathione hydrolase),-0.02,1.44,1.38,enough cells to score
Zfp101 (zinc finger protein 101),-0.02,1.37,1.25,enough cells to score

Just “nuclear/cytoplasmic p65 ratio, rep 1”, for 2 of the entries above:
Zfp770 (zinc finger protein 770)	1.71
Pcsk9 (proprotein convertase subtilisin/kexin type 9)	1.37
